Results are given in words; binding and its absence hold for the method and conditions named. In cells and extracts the contact can be indirect. Here binding means that the protein was enriched with, or labelled near, the bait; the list need not be complete.

Sequences of proteins named here, by UniProt entry; tags and fusion partners are left off.
UniProt O75147: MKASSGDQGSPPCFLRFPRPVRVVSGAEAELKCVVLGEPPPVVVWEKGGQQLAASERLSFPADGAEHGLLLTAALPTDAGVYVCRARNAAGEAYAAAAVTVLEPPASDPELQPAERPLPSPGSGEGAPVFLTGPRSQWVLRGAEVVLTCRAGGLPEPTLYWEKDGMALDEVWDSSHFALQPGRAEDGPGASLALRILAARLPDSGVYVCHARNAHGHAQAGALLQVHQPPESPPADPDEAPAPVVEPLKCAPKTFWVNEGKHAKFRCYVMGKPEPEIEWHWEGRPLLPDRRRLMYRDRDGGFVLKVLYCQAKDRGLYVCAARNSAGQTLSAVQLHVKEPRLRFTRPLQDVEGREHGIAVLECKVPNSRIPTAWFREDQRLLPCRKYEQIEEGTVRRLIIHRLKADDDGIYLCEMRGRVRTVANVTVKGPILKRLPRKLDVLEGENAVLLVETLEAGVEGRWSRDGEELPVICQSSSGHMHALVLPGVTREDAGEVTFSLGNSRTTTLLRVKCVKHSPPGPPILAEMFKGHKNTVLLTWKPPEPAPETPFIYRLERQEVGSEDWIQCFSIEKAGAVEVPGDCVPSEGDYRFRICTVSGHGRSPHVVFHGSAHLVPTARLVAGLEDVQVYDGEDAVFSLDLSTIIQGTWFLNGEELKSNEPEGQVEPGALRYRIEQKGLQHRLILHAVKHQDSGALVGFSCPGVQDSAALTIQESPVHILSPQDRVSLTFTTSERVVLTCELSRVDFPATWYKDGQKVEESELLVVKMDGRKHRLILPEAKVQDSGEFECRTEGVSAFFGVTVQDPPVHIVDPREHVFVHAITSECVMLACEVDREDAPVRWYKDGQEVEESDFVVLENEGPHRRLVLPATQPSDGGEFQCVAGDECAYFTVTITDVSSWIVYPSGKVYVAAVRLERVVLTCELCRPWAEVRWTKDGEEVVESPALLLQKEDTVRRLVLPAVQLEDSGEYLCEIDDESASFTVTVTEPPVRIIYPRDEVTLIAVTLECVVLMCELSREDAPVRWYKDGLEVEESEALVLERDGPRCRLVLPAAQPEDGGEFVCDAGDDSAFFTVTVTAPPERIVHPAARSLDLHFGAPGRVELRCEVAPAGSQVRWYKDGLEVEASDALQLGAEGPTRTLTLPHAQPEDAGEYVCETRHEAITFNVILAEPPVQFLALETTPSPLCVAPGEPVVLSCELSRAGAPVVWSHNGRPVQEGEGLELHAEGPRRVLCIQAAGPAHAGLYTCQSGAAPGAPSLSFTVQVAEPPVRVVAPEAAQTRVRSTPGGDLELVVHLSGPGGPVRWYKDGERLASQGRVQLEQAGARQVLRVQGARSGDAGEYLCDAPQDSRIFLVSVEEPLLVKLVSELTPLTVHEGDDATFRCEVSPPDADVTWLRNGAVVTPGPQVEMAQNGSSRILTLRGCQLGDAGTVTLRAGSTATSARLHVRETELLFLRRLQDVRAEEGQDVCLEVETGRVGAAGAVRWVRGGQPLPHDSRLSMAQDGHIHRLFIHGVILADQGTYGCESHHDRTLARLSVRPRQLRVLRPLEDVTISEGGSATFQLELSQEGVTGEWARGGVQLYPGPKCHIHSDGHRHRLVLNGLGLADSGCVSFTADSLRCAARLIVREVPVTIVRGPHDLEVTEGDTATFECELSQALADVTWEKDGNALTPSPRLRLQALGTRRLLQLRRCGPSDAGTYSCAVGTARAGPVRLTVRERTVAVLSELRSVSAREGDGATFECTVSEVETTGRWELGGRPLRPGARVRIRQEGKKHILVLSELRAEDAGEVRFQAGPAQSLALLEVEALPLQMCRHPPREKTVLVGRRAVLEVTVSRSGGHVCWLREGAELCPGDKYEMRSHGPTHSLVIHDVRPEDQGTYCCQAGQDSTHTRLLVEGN
UniProt Q14999: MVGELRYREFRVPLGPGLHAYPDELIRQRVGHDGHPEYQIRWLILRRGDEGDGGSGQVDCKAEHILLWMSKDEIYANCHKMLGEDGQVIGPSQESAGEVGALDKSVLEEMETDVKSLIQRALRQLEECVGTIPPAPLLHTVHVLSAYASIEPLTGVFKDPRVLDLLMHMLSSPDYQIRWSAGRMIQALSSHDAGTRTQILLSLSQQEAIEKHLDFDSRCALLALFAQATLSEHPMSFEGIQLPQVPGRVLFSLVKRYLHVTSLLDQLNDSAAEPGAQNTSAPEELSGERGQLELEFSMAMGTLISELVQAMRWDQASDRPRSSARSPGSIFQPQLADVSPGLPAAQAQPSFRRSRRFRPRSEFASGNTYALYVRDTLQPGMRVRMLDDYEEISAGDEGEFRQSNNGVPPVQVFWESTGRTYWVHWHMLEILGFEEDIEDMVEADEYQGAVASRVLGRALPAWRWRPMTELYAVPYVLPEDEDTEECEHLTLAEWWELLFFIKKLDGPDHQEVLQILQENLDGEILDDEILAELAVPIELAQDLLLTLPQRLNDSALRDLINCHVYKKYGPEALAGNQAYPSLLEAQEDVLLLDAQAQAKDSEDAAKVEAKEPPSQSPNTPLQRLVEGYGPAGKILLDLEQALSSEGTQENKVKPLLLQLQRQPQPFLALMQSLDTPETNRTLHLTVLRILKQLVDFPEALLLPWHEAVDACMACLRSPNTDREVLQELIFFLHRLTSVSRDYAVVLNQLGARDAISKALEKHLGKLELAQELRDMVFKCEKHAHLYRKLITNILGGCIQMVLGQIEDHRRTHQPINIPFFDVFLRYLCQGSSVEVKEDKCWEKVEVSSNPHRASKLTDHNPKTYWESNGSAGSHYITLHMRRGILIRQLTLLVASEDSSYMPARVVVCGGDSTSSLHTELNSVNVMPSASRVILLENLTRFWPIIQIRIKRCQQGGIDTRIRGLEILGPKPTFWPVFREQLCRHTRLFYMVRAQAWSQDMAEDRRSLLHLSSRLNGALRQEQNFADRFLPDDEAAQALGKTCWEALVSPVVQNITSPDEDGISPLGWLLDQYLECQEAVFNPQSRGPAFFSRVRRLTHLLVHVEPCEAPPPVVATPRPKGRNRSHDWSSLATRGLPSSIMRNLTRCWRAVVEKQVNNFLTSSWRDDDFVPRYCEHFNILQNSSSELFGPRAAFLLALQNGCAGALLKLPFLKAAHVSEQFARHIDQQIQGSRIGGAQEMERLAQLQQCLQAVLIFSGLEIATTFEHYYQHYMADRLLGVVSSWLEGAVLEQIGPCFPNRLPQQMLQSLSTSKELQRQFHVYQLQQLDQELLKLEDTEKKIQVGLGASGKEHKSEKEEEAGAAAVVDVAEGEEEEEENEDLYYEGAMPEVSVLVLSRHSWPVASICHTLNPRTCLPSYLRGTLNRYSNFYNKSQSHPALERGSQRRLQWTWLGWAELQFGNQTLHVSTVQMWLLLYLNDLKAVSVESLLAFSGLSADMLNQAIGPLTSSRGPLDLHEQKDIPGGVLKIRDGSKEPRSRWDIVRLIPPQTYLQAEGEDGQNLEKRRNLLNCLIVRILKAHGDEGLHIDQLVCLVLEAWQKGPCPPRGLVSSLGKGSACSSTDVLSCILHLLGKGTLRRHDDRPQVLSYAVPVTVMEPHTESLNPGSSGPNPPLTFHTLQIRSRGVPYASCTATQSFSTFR

The labels stand for the following.
B1: PA2G4 (protein, UniProt Q9UQ80 1-394)
chain: MSGEDEQQEQTIAEDLVVTKYKMGGDIANRVLRSLVEASSSGVSVLSLCEKGDAMIMEETGKIFKKEKEMKKGIAFPTSISVNNCVCHFSPLKSDQDYILKEGDLVKIDLGVHVDGFIANVAHTFVVDVAQGTQVTGRKADVIKAAHLCAEAALRLVKPGNQNTQVTEAWNKVAHSFNCTPIEGMLSHQLKQHVIDGEKTIIQNPTDQQKKDHEKAEFEVHEVYAVDVLVSSGEGKAKDAGQRTTIYKRDPSKQYGLKMKTSRAFFSEVERRFDAMPFTLRAFEDEKKARMGVVECAKHELLQPFNVLYEKEGEFVAQFKFTVLLMPNGPMRITSGPFEPDLYKSEMEVQDAELKALLQSSASRKTQKKKKKKASKTAENATSGETLEENEAGD
B2: HNRNPR (protein, UniProt O43390 1-633)
chain: MANQVNGNAVQLKEEEEPMDTSSVTHTEHYKTLIEAGLPQKVAERLDEIFQTGLVAYVDLDERAIDALREFNEEGALSVLQQFKESDLSHVQNKSAFLCGVMKTYRQREKQGSKVQESTKGPDEAKIKALLERTGYTLDVTTGQRKYGGPPPDSVYSGVQPGIGTEVFVGKIPRDLYEDELVPLFEKAGPIWDLRLMMDPLSGQNRGYAFITFCGKEAAQEAVKLCDSYEIRPGKHLGVCISVANNRLFVGSIPKNKTKENILEEFSKVTEGLVDVILYHQPDDKKKNRGFCFLEYEDHKSAAQARRRLMSGKVKVWGNVVTVEWADPVEEPDPEVMAKVKVLFVRNLATTVTEEILEKSFSEFGKLERVKKLKDYAFVHFEDRGAAVKAMDEMNGKEIEGEEIEIVLAKPPDKKRKERQAARQASRSTAYEDYYYHPPPRMPPPIRGRGRGGGRGGYGYPPDYYGYEDYYDDYYGYDYHDYRGGYEDPYYGYDDGYAVRGRGGGRGGRGAPPPPRGRGAPPPRGRAGYSQRGAPLGPPRGSRGGRGGPAQQQRGRGSRGSRGNRGGNVGGKRKADGYNQPDSKRRQTNNQQNWGSQPIAQQPLQQGGDYSGNYGYNNDNQEFYQDTYGQQWK
B3: HNRNPL (protein, UniProt P14866 1-589)
chain: MSRRLLPRAEKRRRRLEQRQQPDEQRRRSGAMVKMAAAGGGGGGGRYYGGGSEGGRAPKRLKTDNAGDQHGGGGGGGGGAGAAGGGGGGENYDDPHKTPASPVVHIRGLIDGVVEADLVEALQEFGPISYVVVMPKKRQALVEFEDVLGACNAVNYAADNQIYIAGHPAFVNYSTSQKISRPGDSDDSRSVNSVLLFTILNPIYSITTDVLYTICNPCGPVQRIVIFRKNGVQAMVEFDSVQSAQRAKASLNGADIYSGCCTLKIEYAKPTRLNVFKNDQDTWDYTNPNLSGQGDPGSNPNKRQRQPPLLGDHPAEYGGPHGGYHSHYHDEGYGPPPPHYEGRRMGPPVGGHRRGPSRYGPQYGHPPPPPPPPEYGPHADSPVLMVYGLDQSKMNCDRVFNVFCLYGNVEKVKFMKSKPGAAMVEMADGYAVDRAITHLNNNFMFGQKLNVCVSKQPAIMPGQSYGLEDGSCSYKDFSESRNNRFSTPEQAAKNRIQHPSNVLHFFNAPLEVTEENFFEICDELGVKRPSSVKVFSGKSERSSSGLLEWESKSDALETLGFLNHYQMKNPNGPYPYTLKLCFSTAQHAS
B4: SF1 (protein, UniProt Q15637 1-639)
chain: MATGANATPLDFPSKKRKRSRWNQDTMEQKTVIPGMPTVIPPGLTREQERAYIVQLQIEDLTRKLRTGDLGIPPNPEDRSPSPEPIYNSEGKRLNTREFRTRKKLEEERHNLITEMVALNPDFKPPADYKPPATRVSDKVMIPQDEYPEINFVGLLIGPRGNTLKNIEKECNAKIMIRGKGSVKEGKVGRKDGQMLPGEDEPLHALVTANTMENVKKAVEQIRNILKQGIETPEDQNDLRKMQLRELARLNGTLREDDNRILRPWQSSETRSITNTTVCTKCGGAGHIASDCKFQRPGDPQSAQDKARMDKEYLSLMAELGEAPVPASVGSTSGPATTPLASAPRPAAPANNPPPPSLMSTTQSRPPWMNSGPSESRPYHGMHGGGPGGPGGGPHSFPHPLPSLTGGHGGHPMQHNPNGPPPPWMQPPPPPMNQGPHPPGHHGPPPMDQYLGSTPVGSGVYRLHQGKGMMPPPPMGMMPPPPPPPSGQPPPPPSGPLPPWQQQQQQPPPPPPPSSSMASSTPLPWQQNTTTTTTSAGTGSIPPWQQQQAAAAASPGAPQMQGNPTMVPLPPGVQPPLPPGAPPPPPPPPPGSAGMMYAPPPPPPPPMDPSNFVTMMGMGVAGMPPFGMPPAPPPPPPQN
B5: NUP93 (protein, UniProt Q8N1F7 1-819)
chain: MDTEGFGELLQQAEQLAAETEGISELPHVERNLQEIQQAGERLRSRTLTRTSQETADVKASVLLGSRGLDISHISQRLESLSAATTFEPLEPVKDTDIQGFLKNEKDNALLSAIEESRKRTFGMAEEYHRESMLVEWEQVKQRILHTLLASGEDALDFTQESEPSYISDVGPPGRSSLDNIEMAYARQIYIYNEKIVNGHLQPNLVDLCASVAELDDKSISDMWTMVKQMTDVLLTPATDALKNRSSVEVRMEFVRQALAYLEQSYKNYTLVTVFGNLHQAQLGGVPGTYQLVRSFLNIKLPAPLPGLQDGEVEGHPVWALIYYCMRCGDLLAASQVVNRAQHQLGEFKTWFQEYMNSKDRRLSPATENKLRLHYRRALRNNTDPYKRAVYCIIGRCDVTDNQSEVADKTEDYLWLKLNQVCFDDDGTSSPQDRLTLSQFQKQLLEDYGESHFTVNQQPFLYFQVLFLTAQFEAAVAFLFRMERLRCHAVHVALVLFELKLLLKSSGQSAQLLSHEPGDPPCLRRLNFVRLLMLYTRKFESTDPREALQYFYFLRDEKDSQGENMFLRCVSELVIESREFDMILGKLENDGSRKPGVIDKFTSDTKPIINKVASVAENKGLFEEAAKLYDLAKNADKVLELMNKLLSPVVPQISAPQSNKERLKNMALSIAERYRAQGISANKFVDSTFYLLLDLITFFDEYHSGHIDRAFDIIERLKLVPLNQESVEERVAAFRNFSDEIRHNLSEVLLATMNILFTQFKRLKGTSPSSSSRPQRVIEDRDSQLRSQARTLITFAGMIPYRTSGDTNARLVQMEVLMN

One assay addresses V5-OBSL1 (UniProt O75147). In words: affinity purification with mass spectrometry; lysates of HEK293 cells transfected with CUL7, V5-OBSL1 or CCDC8, 24 h post-transfection; IP with CUL7, V5 or CCDC8 antibody on protein G Dynabeads; SDS-PAGE, GeLC-MS/MS; proteins found in no antibody control IPs removed; only proteins present in all three IPs kept.
For B1, the binding entry was “binds”.

B2: the binding result is reported as “binds”.

With B3, the binding result is on record as “binds”.

Regarding B4, the binding result is given as “binds”.

Turning to B5, the binding result was “binds”.

Another assay has as its target CUL7 (UniProt Q14999). The assay is described as above.
For B1, the binding result is reported as “binds”.

Regarding B2, the binding entry is given as “binds”.

For the molecule B3, the binding result is “binds”.

As for B4, the binding result is recorded as “binds”.

On to B5, for which the binding entry is reported as “binds”.

The target in a further assay is T1, CCDC8 (UniProt Q9H0W5).
T1 sequence: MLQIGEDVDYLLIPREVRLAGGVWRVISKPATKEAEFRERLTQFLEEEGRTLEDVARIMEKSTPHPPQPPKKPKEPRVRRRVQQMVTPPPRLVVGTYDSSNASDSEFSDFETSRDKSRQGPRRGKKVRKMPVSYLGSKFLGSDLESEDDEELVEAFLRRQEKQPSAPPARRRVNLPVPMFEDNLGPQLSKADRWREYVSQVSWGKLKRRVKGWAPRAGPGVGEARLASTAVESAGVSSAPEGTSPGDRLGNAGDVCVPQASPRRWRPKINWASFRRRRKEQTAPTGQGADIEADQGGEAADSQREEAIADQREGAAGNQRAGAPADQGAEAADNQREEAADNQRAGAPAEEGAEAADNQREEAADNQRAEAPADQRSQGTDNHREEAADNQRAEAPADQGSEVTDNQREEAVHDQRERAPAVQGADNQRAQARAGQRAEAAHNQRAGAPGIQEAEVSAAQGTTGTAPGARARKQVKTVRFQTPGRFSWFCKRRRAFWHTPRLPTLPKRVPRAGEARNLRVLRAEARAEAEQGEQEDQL
The assay is described as above.
On to B1, for which the binding result is “binds”.

Take B2: the binding result is given as “binds”.

As for B3, the binding result was “binds”.

Consider B4, for which the binding result is “binds”.

As for B5, the binding entry is “binds”.

(Values after publication PMC4045235.)
